{"source": "patent US4169150A", "about": "“Benzodiazepine derivatives and pharmaceutical compositions containing said derivatives” (Teijin Limited, priority 1975, dated 1979)", "tested_on": "mice", "assay": "Motor incoordinating activity (rotating rod)", "assay_type": "in vivo, mouse (ddY-type male mice)", "details": "Mus musculus, 0.05 h, PO, 5.5 rpm, within 3 minutes, read-out: ED50 motor incoordination, rotating rod", "description": "In the following tests, the pharmacological actions of the compounds were tested by using six mice (ddY-type male mice) for each dosage level, and ED50 values were determined. In the determination of ED50 values, the dosages of the test compounds were increased or decreased by a common ratio of 3 as required, and 3 or 4 dosage levels were used. The calculation of the ED50 values was made on the basis of the Litchfield-Wilcoxon method [J. Pharmacol. Exp. Therap., 96, 99 (1949)].\n(6) Motor incoordinating activity\nMice which could stay for more than 3 minutes on a rotating rod having a diameter of 3.0 cm and rotating at a speed of 5.5 rpm. The subjects were orally administered with the test compound, and then at intervals of 30 minutes, they were placed on the rotating rod. Examination was made as to whether they slipped down within 3 minutes.", "data": [{"smiles": "CN1C(=O)CN=C(c2ccccc2)c2cc(Cl)ccc21", "note": "[Diazepam, reference compound]", "values": [{"measurement": "ED50", "value": 5.4, "unit": "mg/kg"}]}]}
